Measurements published in patent publication US20190321455A1.
These are yes or no findings as the source states them, for the method shown. Some entries that bind do so weakly or less than the wild type.

By UniProt entry, the sequences of proteins in these tests, tags left out. Where a name states a change or a piece, a line headed by the entry shows the natural chain unless it says otherwise.
UniProt Q15366: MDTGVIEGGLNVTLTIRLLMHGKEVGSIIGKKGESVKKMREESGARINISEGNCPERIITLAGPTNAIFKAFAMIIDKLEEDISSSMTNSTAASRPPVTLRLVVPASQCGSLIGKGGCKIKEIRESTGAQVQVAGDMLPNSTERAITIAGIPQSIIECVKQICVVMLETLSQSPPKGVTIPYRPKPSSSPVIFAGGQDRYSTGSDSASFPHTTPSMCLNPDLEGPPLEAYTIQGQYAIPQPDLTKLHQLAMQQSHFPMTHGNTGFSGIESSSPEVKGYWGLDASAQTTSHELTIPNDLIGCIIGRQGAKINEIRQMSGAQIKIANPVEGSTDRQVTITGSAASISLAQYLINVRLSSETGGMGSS
UniProt P07814: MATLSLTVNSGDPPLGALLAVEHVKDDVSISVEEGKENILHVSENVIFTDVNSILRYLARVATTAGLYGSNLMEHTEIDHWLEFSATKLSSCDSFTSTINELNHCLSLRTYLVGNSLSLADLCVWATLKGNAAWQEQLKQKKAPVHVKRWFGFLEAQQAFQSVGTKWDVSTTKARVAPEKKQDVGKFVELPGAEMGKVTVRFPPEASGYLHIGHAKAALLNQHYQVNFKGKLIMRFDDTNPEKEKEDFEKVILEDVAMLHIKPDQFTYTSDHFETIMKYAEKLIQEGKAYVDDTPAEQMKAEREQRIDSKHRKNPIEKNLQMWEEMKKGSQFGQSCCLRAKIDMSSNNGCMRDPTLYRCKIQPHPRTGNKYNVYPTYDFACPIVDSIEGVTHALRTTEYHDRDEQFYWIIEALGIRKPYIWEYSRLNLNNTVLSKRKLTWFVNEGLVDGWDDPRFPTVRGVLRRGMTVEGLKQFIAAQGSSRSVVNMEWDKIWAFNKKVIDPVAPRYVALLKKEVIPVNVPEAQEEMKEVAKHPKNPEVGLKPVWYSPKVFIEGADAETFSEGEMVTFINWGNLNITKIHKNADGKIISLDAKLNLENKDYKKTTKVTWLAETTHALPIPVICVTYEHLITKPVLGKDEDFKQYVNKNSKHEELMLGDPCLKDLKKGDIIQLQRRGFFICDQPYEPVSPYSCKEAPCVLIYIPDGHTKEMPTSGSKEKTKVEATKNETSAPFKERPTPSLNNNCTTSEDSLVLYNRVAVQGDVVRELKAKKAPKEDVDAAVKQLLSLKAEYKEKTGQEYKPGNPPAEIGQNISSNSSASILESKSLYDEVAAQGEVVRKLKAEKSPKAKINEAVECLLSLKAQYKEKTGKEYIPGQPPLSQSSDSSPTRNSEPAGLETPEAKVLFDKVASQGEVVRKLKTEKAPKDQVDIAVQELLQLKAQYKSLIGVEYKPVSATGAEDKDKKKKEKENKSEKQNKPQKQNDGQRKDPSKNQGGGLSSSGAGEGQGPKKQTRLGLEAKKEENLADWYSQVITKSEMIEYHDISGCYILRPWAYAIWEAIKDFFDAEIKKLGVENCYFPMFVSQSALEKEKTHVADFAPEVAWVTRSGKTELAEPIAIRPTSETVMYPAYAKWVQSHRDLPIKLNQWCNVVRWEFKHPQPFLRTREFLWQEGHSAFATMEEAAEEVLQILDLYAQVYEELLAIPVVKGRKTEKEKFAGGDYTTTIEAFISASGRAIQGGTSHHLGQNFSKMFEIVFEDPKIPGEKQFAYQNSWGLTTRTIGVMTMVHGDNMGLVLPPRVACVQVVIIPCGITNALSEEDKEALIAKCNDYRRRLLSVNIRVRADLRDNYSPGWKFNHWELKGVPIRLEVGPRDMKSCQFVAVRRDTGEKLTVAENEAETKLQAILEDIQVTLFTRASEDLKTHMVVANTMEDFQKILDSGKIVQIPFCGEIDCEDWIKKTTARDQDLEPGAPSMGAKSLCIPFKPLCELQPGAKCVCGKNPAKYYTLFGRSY

Target: GST-PCBP2 (full-length poly(rC)-binding protein 2 expressed from a plasmid in 293T cells) (UniProt Q15366)
Assay: GST precipitation from 293T cells, anti-Strep immunoblot

binding: binds
Substance: Strep-EPRS (Strep-tagged full-length glutamyl-prolyl-tRNA synthetase, wild type) (from UniProt P07814 1-1512) (enzyme)
